{
  "source": "patent US20150259371A1",
  "about": "“METHODS AND COMPOUNDS FOR INHIBITING GLYCOSYLTRANSFERASES” (SIMON FRASER UNIVERSITY, priority 2010, published 2015)",
  "key": {"[1]": {"test_system": "O-GlcNAc levels in COS-7 cells", "assay": "Western blot of O-GlcNAc levels (CTD110.6) in treated COS-7 cells", "type": "cell-based, African green monkey", "settings": "50 μM, 24 h", "protocol": "Cell culture: Cells were grown in an incubator at 37° C. and 5% CO2 atmosphere. Media and serum were purchased from Invitrogen. COS-7 cells were cultured in Dulbecco's modified Eagle's medium (DMEM) with 5% fetal bovine serum (FBS), and were typically 80-100% confluent prior to experimentation. HepG2, SK-N-SH, and EMEG32^−/− cells were cultured in Dulbecco's modified Eagle's medium (DMEM) with 5% fetal bovine serum (FBS), CHO cells in DMEMF-12 with 5% FBS and PC12 cells in DMEM with 5% FBS and 5% horse serum. Prior to experimentation, PC12 cells were plated at a density of 3-4×10^5 cells10 cm plate, which had been pre-treated with 5 μgcm^2 rat tail collagen (BD Biosciences). […]\nAntibodieslectins: O-GlcNAc levels were assessed primarily using CTD110.6 (Covance), but RL2 (Abcam) and HGAC85 (Abcam) were also tested. […] OGA levels were assessed using a polyclonal anti-OGA antibody which was a kind gift from Dr. Gerald Hart and OGT levels using H-300 (Santa Cruz Biotechnology). nup62 was probed using mAb 414 (Covance). […]\nAnalogues (9, 10, 17-41) were tested in COS-7 cells, dosed at a final concentration of 50 μM in DMSO for 24 h. Following treatment, cells were washed with PBS, harvested into SDS-PAGE loading buffer and analyzed by western blot using standard procedures; blots were probed with the anti-O-GlcNAc antibody (CTD 110.6)."}, "[2]": {"test_system": "incorporation of azido sugar onto proteins in COS-7 cells", "assay": "Metabolic feeding and Staudinger ligation with biotin phosphine, streptavidin-HRP blot", "type": "cell-based, African green monkey", "settings": "50 μM, 24 h, listed as Ac-5SGlcNAz", "protocol": "(A) Structures of the molecules used or generated during the chemoselective ligation study (X═O or S as indicated, R═H or Ac as indicated). (B) Western blots of COS-7 cell lysates administered specified agents at 50 μM for 24 h; vehicle only (C), Ac-GlcNAz or Ac-5SGlcNAz (41). Cells were harvested and then underwent the Staudinger ligation with biotin phosphine. Blots are probed with (from top to bottom) streptavidin-HRP, anti O-GlcNAc (CTD110.6) antibody and anti-actin antibody. (C) Western blot of immunoprecipitated nup62 from cell lysates following vehicle (C), 50 μM Ac-GlcNAz or Ac-5SGlcNAz (41) treatment for 24 h. Following immunoprecipitation, nup62 was incubated with buffer (−) or with BtGH84 (+) for 2 h to remove O-GlcNAc, and then underwent the Staudinger ligation with biotin phosphine. Blots are probed with streptavidin-HRP. […]\nTo probe the possibility that 5SGlcNAc is being incorporated onto proteins, we used a metabolic feeding and chemoselective ligation strategy using 2-azidoacetamido-2-deoxy-D-glucopyranose (GlcNAz), which can be assimilated by the HBP to form uridine diphospho-N-azidoacetylglucosamine (UDP-GlcNAz) and then be installed onto proteins as O-GlcNAz^9. […] Accordingly, we evaluated whether 2-azidoacetamido-2-deoxy-5-thio-D-glucopyranose (5SGlcNAz) is incorporated onto proteins to determine whether 5SGlcNAc might be transferred onto proteins in cells. […]"}},
  "note": "“Also recorded” adds a separate entry of the source. At least one compound was matched to its structure with a doubt left.",
  "data": [
    {"smiles": "CC(=O)OCC1SC(OC(C)=O)C(NC(=O)CN=[N+]=[N-])C(OC(C)=O)C1OC(C)=O", "note": "[Compound 41, 1,3,4,6-tetra-O-acetyl-2-azidoacetamido-2-deoxy-5-thio-α-D-glucopyranose]", "values": [
      {"measurement": "effect on O-GlcNAc levels at single dose", "setting": "[1]", "value": "decreased O-GlcNAc levels in cells"},
      {"measurement": "effect on O-GlcNAc levels at single dose", "setting": "[1]; listed as Ac-5SGlcNAz", "value": "decreases O-GlcNAc levels; also recorded: causes a decrease in O-GlcNAc levels"},
      {"measurement": "streptavidin signal after Staudinger ligation (accumulation of azido sugar on proteins)", "setting": "[2]", "value": "the signal from cells treated with vehicle were indistinguishable from those treated with Ac-5SGlcNAz; also recorded: no accumulation of 5SGlcNAz on proteins"}
    ]}
  ]
}
